Measurements: publication PMC11602133
These are yes or no findings as the source states them, for the method shown. For some assays here: Binding can be weak; no strength is given.

Protein sequences, listed by entry. Tags and fused reporters are not part of them.
UniProt Q39081: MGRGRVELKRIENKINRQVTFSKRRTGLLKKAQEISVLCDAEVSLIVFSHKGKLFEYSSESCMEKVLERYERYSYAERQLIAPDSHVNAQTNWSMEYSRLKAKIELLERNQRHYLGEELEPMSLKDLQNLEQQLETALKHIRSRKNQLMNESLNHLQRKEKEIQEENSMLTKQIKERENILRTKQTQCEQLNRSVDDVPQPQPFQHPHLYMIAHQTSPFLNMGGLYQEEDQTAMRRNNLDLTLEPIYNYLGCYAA
UniProt P17839: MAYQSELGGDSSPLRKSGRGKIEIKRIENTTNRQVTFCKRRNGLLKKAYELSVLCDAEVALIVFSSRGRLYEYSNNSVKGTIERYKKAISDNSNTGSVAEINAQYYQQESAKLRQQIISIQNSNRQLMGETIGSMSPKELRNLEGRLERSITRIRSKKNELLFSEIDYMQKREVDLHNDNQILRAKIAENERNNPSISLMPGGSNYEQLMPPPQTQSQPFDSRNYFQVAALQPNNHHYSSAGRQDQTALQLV
UniProt Q40168: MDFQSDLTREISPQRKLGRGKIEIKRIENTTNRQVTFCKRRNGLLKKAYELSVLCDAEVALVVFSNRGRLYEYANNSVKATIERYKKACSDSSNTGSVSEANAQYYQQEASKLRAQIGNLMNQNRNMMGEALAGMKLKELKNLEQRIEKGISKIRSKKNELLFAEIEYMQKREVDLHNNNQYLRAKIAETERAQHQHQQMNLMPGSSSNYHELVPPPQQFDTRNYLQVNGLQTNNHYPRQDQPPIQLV

Tests used:
Experiment in all cases: two-hybrid; yeast two-hybrid, pDEST22 (AD) and pDEST32 (BD) fusions, strains PJ69-4A and PJ69-4alpha, -LWH dropout medium with 3-AT (5 mM in Figure 2A), room temperature, both orientations where possible
[1] = target: CAULIFLOWER (CAL), BD fusion (Arabidopsis) (UniProt Q39081)
[2] = target: … 4 (SEP4), BD fusion (Arabidopsis) (UniProt P29383)
[3] = target: AGAMOUS (AG), yeast two-hybrid fusion (Arabidopsis) (UniProt P17839)
[4] = target: TOMATO AG 1 (TAG1), yeast two-hybrid fusion (tomato) (UniProt Q40168)
[5] = target: … 3 (SEP3), yeast two-hybrid fusion (Arabidopsis) (UniProt O22456)

Substance	binding [1]	binding [2]	binding [3]	binding [4]	binding [5]
SEP3_S59S60S61 (SEP3 with shortened loop), yeast two-hybrid fusion (from UniProt O22456)	no binding	no binding			
tomato FUL2, yeast two-hybrid fusion (from UniProt A0A3Q7FTD8)			binds	binds	binds
